PubChem BioAssay AID686943 – Drosophila RNAi Screening Center | 2013
The deposit covers about 23,000 reagents; this is an unselected part of those with a known target gene and a result. 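Extra replicates exist only for a retested subset of genes; insulin dose and duration not given; both raised and lowered dpERK matter.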 Reagents against one gene are numbered here. A plus sign joins genes that one reagent is predicted to hit. Not all columns of the deposit are shown. No sequences are given here. Not given: the amount of reagent, the time to read-out.

Purpose: 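Knockdowns that increase or decrease active ERK after insulin receptor stimulation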 (primary screen)
System: Drosophila S2R+ haemocyte-like cells expressing YFP-tagged ERK (Rolled)
Reagents: long dsRNA against Drosophila genes
Treatment: insulin stimulation versus unstimulated cells; dose and duration not given
Measured: 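Antibody staining for doubly phosphorylated ERK divided by ERK-YFP signal, as plate z-scores, in insulin-treated and untreated cells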
Reading the numbers: replicate 1, z-score of dpERK with insulin and replicate 2, z-score of dpERK with insulin: higher = more active ERK per ERK-YFP after insulin

{"gene":"Tfb1","reagent":1,"replicate 1, z-score of dpERK with insulin":0.31,"replicate 2, z-score of dpERK with insulin":1.28}
{"gene":"lncRNA:CR9284","reagent":1,"replicate 1, z-score of dpERK with insulin":-0.51,"replicate 2, z-score of dpERK with insulin":-0.75}
{"gene":"lncRNA:CR9284","reagent":2,"replicate 1, z-score of dpERK with insulin":-0.26,"replicate 2, z-score of dpERK with insulin":-0.61}
{"gene":"CG32066","reagent":1,"replicate 1, z-score of dpERK with insulin":0.49,"replicate 2, z-score of dpERK with insulin":0.34}
{"gene":"CG32066","reagent":2,"replicate 1, z-score of dpERK with insulin":0.21,"replicate 2, z-score of dpERK with insulin":0.82}
{"gene":"CG10508","reagent":1,"replicate 1, z-score of dpERK with insulin":1.38,"replicate 2, z-score of dpERK with insulin":1.05}
{"gene":"CG10508","reagent":2,"replicate 1, z-score of dpERK with insulin":0.74,"replicate 2, z-score of dpERK with insulin":-0.73}
{"gene":"fd19B","reagent":1,"replicate 1, z-score of dpERK with insulin":0.57,"replicate 2, z-score of dpERK with insulin":0.51}
{"gene":"CG15534","reagent":1,"replicate 1, z-score of dpERK with insulin":0.04,"replicate 2, z-score of dpERK with insulin":2.04}
{"gene":"CG18480","reagent":1,"replicate 1, z-score of dpERK with insulin":1.11,"replicate 2, z-score of dpERK with insulin":0.24}
{"gene":"CG10383","reagent":1,"replicate 1, z-score of dpERK with insulin":-0.26,"replicate 2, z-score of dpERK with insulin":0.08}
{"gene":"natalisin","reagent":1,"replicate 1, z-score of dpERK with insulin":-0.46,"replicate 2, z-score of dpERK with insulin":1.6}
{"gene":"natalisin","reagent":2,"replicate 1, z-score of dpERK with insulin":1.1,"replicate 2, z-score of dpERK with insulin":0.33}

Entries listed so far whose gene name starts with L or l:
{"gene":"lncRNA:CR9284","reagent":1,"replicate 1, z-score of dpERK with insulin":-0.51,"replicate 2, z-score of dpERK with insulin":-0.75}
{"gene":"lncRNA:CR9284","reagent":2,"replicate 1, z-score of dpERK with insulin":-0.26,"replicate 2, z-score of dpERK with insulin":-0.61}

Next entries follow.
{"gene":"CG31688","reagent":1,"replicate 1, z-score of dpERK with insulin":-2.34,"replicate 2, z-score of dpERK with insulin":0.48}
{"gene":"CG31688","reagent":2,"replicate 1, z-score of dpERK with insulin":-0.13,"replicate 2, z-score of dpERK with insulin":-1.33}
{"gene":"CG14380","reagent":1,"replicate 1, z-score of dpERK with insulin":1.03,"replicate 2, z-score of dpERK with insulin":0.71}
{"gene":"CG3165","reagent":1,"replicate 1, z-score of dpERK with insulin":0.92,"replicate 2, z-score of dpERK with insulin":0.77}
{"gene":"EMC6","reagent":1,"replicate 1, z-score of dpERK with insulin":-0.07,"replicate 2, z-score of dpERK with insulin":-0.27}
{"gene":"Ugt37A2","reagent":1,"replicate 1, z-score of dpERK with insulin":0.44,"replicate 2, z-score of dpERK with insulin":1.64}
{"gene":"Cpr66Cb","reagent":1,"replicate 1, z-score of dpERK with insulin":-0.01,"replicate 2, z-score of dpERK with insulin":0.04}
{"gene":"PGRP-SA","reagent":1,"replicate 1, z-score of dpERK with insulin":0.38,"replicate 2, z-score of dpERK with insulin":0.41}
{"gene":"CG42327","reagent":1,"replicate 1, z-score of dpERK with insulin":-2.18,"replicate 2, z-score of dpERK with insulin":0.82}
{"gene":"CG42327","reagent":2,"replicate 1, z-score of dpERK with insulin":0.76,"replicate 2, z-score of dpERK with insulin":1.04}
{"gene":"CG34025","reagent":1,"replicate 1, z-score of dpERK with insulin":-0.2,"replicate 2, z-score of dpERK with insulin":-0.26}
{"gene":"CG18609","reagent":1,"replicate 1, z-score of dpERK with insulin":0.27,"replicate 2, z-score of dpERK with insulin":0.11}
{"gene":"CG15097","reagent":1,"replicate 1, z-score of dpERK with insulin":0.87,"replicate 2, z-score of dpERK with insulin":-0.32}
{"gene":"Prp40","reagent":1,"replicate 1, z-score of dpERK with insulin":0.04,"replicate 2, z-score of dpERK with insulin":-1.36}
{"gene":"x16","reagent":1,"replicate 1, z-score of dpERK with insulin":2.08,"replicate 2, z-score of dpERK with insulin":-0.21}
{"gene":"x16","reagent":2,"replicate 1, z-score of dpERK with insulin":0.11,"replicate 2, z-score of dpERK with insulin":0.92}
{"gene":"CG10576","reagent":1,"replicate 1, z-score of dpERK with insulin":-0.16,"replicate 2, z-score of dpERK with insulin":0.7}
{"gene":"ppk16","reagent":1,"replicate 1, z-score of dpERK with insulin":0.91,"replicate 2, z-score of dpERK with insulin":-0.53}
{"gene":"CG13314","reagent":1,"replicate 1, z-score of dpERK with insulin":-0.2,"replicate 2, z-score of dpERK with insulin":-0.09}
{"gene":"Gapdh1","reagent":1,"replicate 1, z-score of dpERK with insulin":-1.05,"replicate 2, z-score of dpERK with insulin":0.44}
{"gene":"CG32219","reagent":1,"replicate 1, z-score of dpERK with insulin":0.76,"replicate 2, z-score of dpERK with insulin":0.88}
{"gene":"CG6972","reagent":1,"replicate 1, z-score of dpERK with insulin":0.5,"replicate 2, z-score of dpERK with insulin":0.21}
{"gene":"atms","reagent":1,"replicate 1, z-score of dpERK with insulin":1.56,"replicate 2, z-score of dpERK with insulin":0.97}
{"gene":"Trpml + CG42638","reagent":1,"replicate 1, z-score of dpERK with insulin":-0.56,"replicate 2, z-score of dpERK with insulin":-0.08}
{"gene":"Ice2","reagent":1,"replicate 1, z-score of dpERK with insulin":-0.61,"replicate 2, z-score of dpERK with insulin":-0.23}
{"gene":"CG1647","reagent":1,"replicate 1, z-score of dpERK with insulin":0.01,"replicate 2, z-score of dpERK with insulin":0.18}
{"gene":"CG8303","reagent":1,"replicate 1, z-score of dpERK with insulin":-0.35,"replicate 2, z-score of dpERK with insulin":-0.05}
